Data source: PubChem BioAssay AID504764 (Drosophila RNAi Screening Center, 2011)
Assay: 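Knock-downs that raise or lower a Notch target reporter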 (primary screen). System: Drosophila Kc167 cells. Reagent: long dsRNA against Drosophila genes. Timing: about 5 days (4 days dsRNA, then 24 h after transfection). Conditions: transfection of constitutively active membrane-tethered Notch lacking the extracellular domain, read 24 h later. Measurement: 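Light from a Notch-responsive E(spl)m3 luciferase reporter under active Notch, with control-promoter and no-Notch reporter wells to normalise; raw counts from paired wells a and b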. Direction: induced reporter light, run 1, well a and induced reporter light, run 1, well b: higher = more light from the Notch target reporter with active Notch; control promoter light, run 1, well a and control promoter light, run 1, well b: higher = more light from the viral control promoter (cell number, transfection, viability); uninduced reporter light, run 1, well a: higher = more light from the Notch target reporter without active Notch. Active means: 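Hit if the duplicate-averaged log2 ratio of induced to control-promoter light gives a plate-wise z beyond ±2, or induced to uninduced beyond ±1.8; weak-control or discordant-duplicate wells dropped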. Calls: active = modifier hit (raised or lowered Notch signal); inactive = not a hit.
The screen tested about 22,000 reagents; this is a random part of those with a known target gene and a result. In the full data, 403 (1.9%) are marked active. 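Unnormalised raw counts per well; ratio z-scores behind the hit calls and whether each hit raises or lowers signal are not deposited.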 No sequences are given here. Not given: the amount of reagent.

predicted target	DRSC id	induced reporter light, run 1, well a	induced reporter light, run 1, well b	control promoter light, run 1, well a	control promoter light, run 1, well b	uninduced reporter light, run 1, well a	outcome
CG31777	DRSC00201	1.11e5	1.15e5	1.36e5	1.52e5	10340	inactive
TMEM216	DRSC16378	1.05e5	1.25e5	98475	73720	12000	inactive
Ir67b	DRSC09876	2.98e5	1.97e5	3.54e5	2.83e5	15300	inactive
elg1	DRSC10229	1.21e5	1.41e5	84420	94425	8010	inactive
Nlg1	DRSC12485	1.15e5	1.39e5	1.41e5	96150	12400	inactive
Nlg1	DRSC12532	84330	75565	99850	71890	5825	inactive
Nlg1	DRSC12533	61205	75705	69810	44780	6965	inactive
Nlg1	DRSC12539	73770	77545	75190	61115	5645	inactive
CG7627	DRSC03065	1.63e5	2.18e5	1.88e5	1.71e5	19785	inactive
CG32945	DRSC12014	1.83e5	1.89e5	2.90e5	2.12e5	13465	inactive
Ugt37E1	DRSC02248	1.35e5	1.56e5	1.50e5	1.93e5	12070	inactive
CG17134	DRSC02583	1.39e5	1.53e5	88135	96360	19895	inactive
CG32483	DRSC07902	1.88e5	1.77e5	1.74e5	1.73e5	15080	inactive
CG3036	DRSC00260	1.04e5	98080	1.36e5	1.65e5	8515	inactive
CG3036	DRSC00562	1.86e5	1.84e5	2.02e5	1.94e5	15895	inactive
Epg5	DRSC14778	2.35e5	2.16e5	1.97e5	1.89e5	13855	inactive
CG34337	DRSC18435	1.19e5	1.27e5	2.19e5	1.95e5	8785	inactive
CG10481	DRSC02063	71430	41890	54970	71960	4375	inactive
Pal1	DRSC06106	1.74e5	1.47e5	1.42e5	1.28e5	14535	inactive
Ak2	DRSC04043	1.51e5	1.80e5	1.48e5	1.45e5	11440	inactive
CG5921	DRSC17431	80185	88505	89815	80020	6530	inactive
CG5921	DRSC18390	35165	37355	41895	41165	2350	inactive
Cfp1	DRSC18128	1.17e5	1.21e5	2.05e5	1.75e5	8610	inactive
CG14294	DRSC14774	2.03e5	1.47e5	2.01e5	1.97e5	11195	inactive
CG32249	DRSC08101	2.28e5	2.25e5	1.88e5	1.77e5	16465	inactive
CG32249	DRSC08177	2.21e5	1.96e5	2.67e5	2.01e5	12080	inactive
Bap111	DRSC18419	2.29e5	1.91e5	2.82e5	2.76e5	17570	inactive
mRpL37	DRSC16062	1.37e5	1.51e5	1.88e5	1.33e5	15650	inactive
RabGGTb	DRSC00804	1.80e5	1.79e5	1.80e5	1.87e5	18382	inactive
dpr15	DRSC12891	1.46e5	1.24e5	1.88e5	1.84e5	11420	inactive
dpr15	DRSC14187	58780	61965	58500	51095	12918	inactive
dpr15	DRSC14188	96365	78990	80035	69365	5045	inactive
Ge-1	DRSC02938	1.87e5	1.46e5	1.07e5	1.22e5	11610	inactive
osk	DRSC17023	1.30e5	1.20e5	96345	79705	10625	inactive
betaTub56D	DRSC07583	16390	12260	23070	20265	2832	inactive
Fbxo42	DRSC04529	1.89e5	2.11e5	1.54e5	1.63e5	13770	inactive
CheB93a	DRSC15044	2.02e5	1.87e5	1.78e5	1.84e5	12660	inactive
Torsin	DRSC18570	2.44e5	1.94e5	3.63e5	3.90e5	13505	inactive
CG14341	DRSC00371	1.71e5	1.86e5	1.67e5	1.09e5	13260	inactive
nan	DRSC10551	1.55e5	1.93e5	2.78e5	2.31e5	10542	inactive
Lgr4	DRSC18969	82265	73515	1.05e5	86665	6320	inactive
Lgr4	DRSC18970	77075	75015	1.06e5	96785	7935	inactive
Lgr4	DRSC19884	1.43e5	1.53e5	2.68e5	2.64e5	9115	inactive
Obp58b	DRSC04161	1.87e5	1.70e5	1.72e5	1.48e5	13855	inactive
CG31121	DRSC15361	1.65e5	1.56e5	2.09e5	1.74e5	11315	inactive
CG31121	DRSC15363	1.38e5	1.05e5	1.80e5	1.53e5	11355	inactive
P5CS	DRSC11831	1.14e5	1.17e5	72670	85835	8300	inactive
P5CS	DRSC11832	1.40e5	1.39e5	1.28e5	1.32e5	8805	inactive
NimC4	DRSC01945	1.25e5	1.30e5	1.62e5	1.61e5	11705	inactive
dysf	DRSC14529	1.63e5	1.41e5	2.14e5	1.93e5	13415	inactive
dysf	DRSC14895	1.15e5	1.07e5	1.52e5	1.46e5	9575	inactive
dysf	DRSC14896	1.25e5	1.27e5	1.58e5	1.76e5	10582	inactive
dysf	DRSC14897	11678	11290	9555	11482	3045	inactive

An excerpt from above, reduced to “control promoter light, run 1, well b”.
CG3036 [DRSC00260] = 1.65e5
CG3036 [DRSC00562] = 1.94e5
Epg5 [DRSC14778] = 1.89e5
